Measurements: PubChem BioAssay AID2685 (National Center for Advancing Translational Sciences (NCATS), 2010)
Some of the results follow. Further columns of the screen follow, without active or inactive calls. Most of these compounds were active or inconclusive in the main read-out, so they are no random draw. Words in brackets tell the shape of the fitted curve; partial curves, single points and poor fits give uncertain potencies.

Experiment: qHTS Assay for Lipid Storage Modulators in Drosophila S3 Cells;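 as to cell number change: cells counted by Cell Tracker Red CMTPX staining in the red channel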
Conditions: BODIPY lipid droplet fluorescence, 18-24 h; for cell number change: measured here: cell count max response, cells fed with added oleic acid
In short: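 Laser-scanning cytometry quantifies lipid droplet accumulation (500–530 nm total intensity; droplet/cell object ratio) in oleic acid-fed (400 uM added) Drosophila S3 cells treated with a concentration series. 20 uM Triacsin C defined 100% inhibition.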

[1] = measured here: lipid fluorescence (Fed channel) AC50, cells fed with added oleic acid
[2] = measured here: cell number channel AC50, cells fed with added oleic acid

Row | SMILES | cell number change [%] | AC50 [1] | AC50 [2]
1 | CC(C)(C)C1CCC(=NNC(=S)Nc2cccnc2)CC1 (stereo not given) | 3.83 | 517 nM [rising, partial curve, poor fit] | 
2 | CC(C)(C)OC(=O)NCCCCCNC(=O)c1[nH]cnc1C(=O)Nc1nccs1 | -2.94 | 130 nM [falling, single point] | 
3 | C=CCn1c(SCC(=O)NCc2ccco2)nc2sc3c(c2c1=O)CCCC3 | 6.23 |  | 116 nM [falling, full curve, poor fit]
4 | Nc1nc(SCC(=O)NCCO)nc2sc3c(c12)CCCC3 | 14.1 |  | 
5 | CN(c1ccccc1C(=O)Nc1ccc(S(=O)(=O)N2CCOCC2)cc1)S(C)(=O)=O | -9.93 | 65.1 nM [rising, full curve, poor fit] | 
6 | CN(c1ccccc1)S(=O)(=O)c1ccc(NC(=O)COc2ccccc2)cc1 | -54 | 29100 nM [falling, single point] | 16400 nM [falling, single point]
7 | CCOC(=O)C1(CC2CCCCO2)CCN(Cc2cc3ccccc3[nH]2)CC1 (stereo not given) | -11.6 | 3260 nM [falling, partial curve, poor fit] | 
8 | CN(C)Cc1c(C(=O)N/N=C/c2cccc3ccccc23)nnn1-c1nonc1N | -5.37 |  | 
9 | Cc1ccc(C(=O)CN2CCC(NC(=O)C3CCCCC3)CC2)cc1 | 31.6 | 18400 nM [rising, single point] | 1460 nM [rising, full curve, poor fit]
10 | O=C(NCc1ccccc1Cl)C1CCCN1C(=O)NCc1ccccc1 (stereo not given) | -9.12 |  | 
11 | Cc1ccc(C(=O)CC2(O)C(=O)N(C)c3ccccc32)s1 (stereo not given) | -22.9 |  | 3660 nM [rising, single point]
12 | O=C(/C=C/c1cccc([N+](=O)[O-])c1)NCCSCc1cccc(Cl)c1 | 16.3 | 29100 nM [rising, single point] | 
13 | COC(=O)c1ccccc1NC(=O)CN(Cc1ccccc1)S(C)(=O)=O | 5.62 |  | 
14 | C[N+](C)(C)CCOc1ccc([N+](=O)[O-])cc1 | 10.6 |  | 
15 | CC(C)CCNC(=O)c1ccccc1NC(=O)C1=CSCCO1 | -8.75 |  | 
16 | COC(=O)/C=C1\S/C(=N/NC(=O)c2ccc(OC)cc2)NC1=O | 11 | 2310 nM [falling, partial curve, poor fit] | 
17 | N#CCCN=C(NS(=O)(=O)c1ccccc1)c1ccccc1 | 11.2 | 1160 nM [rising, single point] | 
18 | COC(=O)[C@H](Cc1ccccc1)NC(=O)NCc1ccccc1OC | 11.6 | 6510 nM [falling, single point] | 
19 | CCOCCN1CCN(c2c(CC)c(C)nc3cc(-c4cc(OC)cc(OC)c4)nn23)CC1 | -14.9 | 9200 nM [falling, single point] | 
20 | CN(C)CCCNC(=O)c1ccc(Cl)c(S(=O)(=O)N2CCCCCC2)c1 | -33.6 | 20600 nM [falling, single point] | 20600 nM [falling, single point]
21 | CCC(C(=O)NCCC(C)C)n1ccc2cc(S(=O)(=O)N3CCCCC3)ccc21 (stereo not given) | -21.3 | 1640 nM [falling, partial curve] | 

Taken from above:
Value of CCOC(=O)C1(CC2CCCCO2)CCN(Cc2cc3ccccc3[nH]2)CC1 (stereo not given) under cell number change [%]: -11.6
Value of Cc1ccc(C(=O)CC2(O)C(=O)N(C)c3ccccc32)s1 (stereo not given) under cell number change [%]: -22.9

(continued)

Row | SMILES | cell number change [%] | AC50 [1] | AC50 [2]
22 | Cc1ccc(NC(=S)NNc2ncc(C(F)(F)F)cc2Cl)c(C)c1 |  | 1640 nM [rising, partial curve] | 1460 nM [rising, partial curve]
23 | CC(=O)N1c2ccc(S(=O)(=O)N3CCC(C(=O)N4CC(C)CC(C)C4)CC3)cc2CC1C (stereo not given) | -5.77 | 411 nM [falling, single point] | 
24 | COc1ccccc1NS(=O)(=O)c1cc(C(=O)NCC(c2ccc(F)cc2)N2CCOCC2)ccc1C (stereo not given) | 115 |  | 14600 nM [rising, partial curve]
25 | O=C(N/N=C/c1cccnc1)c1ccc(NC(=O)C(c2ccccc2)c2ccccc2)cc1 | 5.06 | 2310 nM [falling, full curve, poor fit] | 
26 | c1ccc(Nc2ccc(-n3ccnc3)nn2)cc1 | -95.2 |  | 20600 nM [falling, single point]
27 | CN(CC(=O)NCC1CCCCC1)S(=O)(=O)c1ccc(Cl)cc1 | 4.27 | 18400 nM [rising, single point] | 
28 | COc1cccc(OCCOc2ccccc2OC(C)C)c1 | -15.1 | 7310 nM [rising, partial curve, poor fit] | 
29 | CCC(=O)N1CCc2cc(S(=O)(=O)Nc3ccccc3C)ccc21 | 11.1 | 6510 nM [rising, single point] | 
30 | CC1(C)CNC(=O)c2sc(N3CCCCC3)nc2C1 | -18.8 |  | 
31 | COc1cc(/C=N/NC(=O)CN2CCCCC2)ccc1OCc1ccc(Br)cc1 | 10.2 |  | 92 nM [falling, full curve, poor fit]
32 | COc1ccccc1CNC(=O)Cn1cccc1 | 6.51 |  | 
33 | COC(=O)COc1ccc(C(c2c(C)[nH][nH]c2=O)c2c(C)[nH][nH]c2=O)cc1 | -2.47 | 29100 nM [rising, single point] | 
34 | Cc1ccc(-c2nn3c(C)nnc3c3ccccc23)cc1S(=O)(=O)NC(C)c1ccccc1 (stereo not given) | -20 | 16400 nM [falling, single point] | 
35 | CC1(C)Cc2cccc(Oc3cc(NN4CCCCC4)c([N+](=O)[O-])cc3[N+](=O)[O-])c2O1 | -0.324 | 20.6 nM [falling, full curve] | 
36 | O=C(NCCS(=O)(=O)NCc1ccccc1Cl)c1ccccc1 | 34.4 | 6510 nM [falling, single point] | 29100 nM [rising, single point]
37 | Cc1nccn1CCN(C)Cc1cn(Cc2ccccc2)nc1-c1ccc2c(c1)OCO2 |  |  | 4110 nM [falling, single point]
38 | COc1ccc2nc(SCC(=O)Nc3ccc(S(=O)(=O)N4CCCC4)cc3)c(C#N)cc2c1 | -3.24 | 6510 nM [rising, single point] | 
39 | Cc1cccc(CN2CCN(CC(=O)O)C2=O)c1 | 20.5 |  | 820 nM [rising, full curve, poor fit]
40 | Cc1ccnc2nc(C(=O)NCc3cccs3)nn12 | 1.94 |  | 
41 | Cc1nn(C(C)(C)C)c(OC(=O)C2CCCC2)c1S(=O)(=O)c1ccccc1 | -18.5 |  | 4.11 nM [falling, full curve, poor fit]
42 | CC(C)c1ccc(NC(=O)CSc2nc3ccccc3nc2N2CCCC2)cc1 | -6.05 | 29100 nM [falling, single point] | 

Row | SMILES | cell number change [%] | AC50 [1] | AC50 [2]
43 | Cc1ccc(CS(=O)Cc2ccc(C(=O)NCc3cccs3)o2)cc1 (stereo not given) |  |  | 4.61 nM [falling, full curve, poor fit]
44 | CCCCC(=O)Nc1nnc(SCC(=O)NC2CC2)s1 | 12.5 |  | 
45 | CSc1nc2c(cc1C#N)CCC2 | 14.4 |  | 
46 | CC(Sc1nnc2ccccn12)C(N)=O (stereo not given) |  | 580 nM [rising, partial curve, poor fit] | 580 nM [rising, single point]
47 | O=C1CC(=O)N(c2ccccc2)N1c1ccccc1 |  | 32600 nM [falling, single point] | 
48 | COc1ccc2[nH]c3c(c2c1)CCN1C(=O)N([C@@H](C)C(=O)NC2CCCC2)C(=O)[C@]31C | 20.4 |  | 
49 | CCOc1ccc(S(=O)(=O)NCCC(=O)NCC2COc3ccccc3O2)cc1 (stereo not given) | 18.5 |  | 130 nM [rising, full curve, poor fit]
50 | COC(=O)c1c(NC(=O)CN2CCN(S(=O)(=O)c3ccccc3[N+](=O)[O-])CC2)sc2c1CCC(C)C2 (stereo not given) | -33.3 | 517 nM [rising, full curve] | 820 nM [falling, full curve, poor fit]
51 | CCCNc1c(NS(=O)(=O)c2c(F)c(F)c(F)c(F)c2F)c(=O)oc2ccccc12 | 4.29 |  | 
52 | CC(=O)c1cccc(NC(=O)c2ccc3c(c2)C(=O)N(Cc2cccnc2)C3=O)c1 | -42.2 | 4610 nM [falling, single point] | 29100 nM [falling, single point]
53 | CC(C(=O)NC1CCCCCC1)c1ccc([N+](=O)[O-])cc1 (stereo not given) | 2.19 |  | 
54 | O=C(NCCc1ccccc1)C1CCCN(S(=O)(=O)c2cccnc2)C1 (stereo not given) | 14.5 | 116 nM [rising, full curve, poor fit] | 29.1 nM [rising, full curve, poor fit]
55 | CCOC(=O)C1=C(COC(=O)/C=C/c2ccccc2Cl)NC(=O)NC1C (stereo not given) | 11.1 | 1460 nM [rising, full curve, poor fit] | 
56 | CCN(CC)CCNC(=O)c1ccc(NC(=O)c2cc(-c3ccncc3)nc3ccccc23)cc1 | -46.5 | 20600 nM [falling, single point] | 2310 nM [falling, partial curve]
57 | O=C(Nc1cccc(Cl)c1)Nc1nc(-c2ccccc2)cs1 | -54.9 | 20600 nM [falling, partial curve, poor fit] | 18400 nM [falling, partial curve, poor fit]
58 | O=C(CCN1CCc2ccccc2C(c2ccccc2)C1)c1ccc2c(c1)OCCO2 (stereo not given) | -89.9 |  | 29100 nM [falling, single point]
59 | Cc1ccc(S(=O)(=O)N2CCC(=O)N(CCOC(=O)Nc3ccccc3C)CC2)cc1 | -0.104 | 920 nM [rising, partial curve] | 
60 | CC(=O)Nc1ccc(-c2nn[nH]n2)cc1 | 25.9 | 291 nM [rising, full curve, poor fit] | 
61 | COc1ccc(CCNC(=O)Cn2nnc(-c3ccc(N4CCOCC4)cc3)n2)cc1OC | -80.2 | 259 nM [falling, full curve] | 291 nM [falling, full curve]
